# Assay results as given in paper doi:10.1101/2021.08.03.454894.
# Chains of the proteins cited; added tags and fusions are not shown. Lines headed by an entry give the natural chain unless they say otherwise; changes in a name come on top. A line that says so, or that is headed by a name, gives the form on record, which may keep a tag or linker. Residues count along the entry.
# human LHCGR (residues 27-699), wild type (P22888, residues 27-699): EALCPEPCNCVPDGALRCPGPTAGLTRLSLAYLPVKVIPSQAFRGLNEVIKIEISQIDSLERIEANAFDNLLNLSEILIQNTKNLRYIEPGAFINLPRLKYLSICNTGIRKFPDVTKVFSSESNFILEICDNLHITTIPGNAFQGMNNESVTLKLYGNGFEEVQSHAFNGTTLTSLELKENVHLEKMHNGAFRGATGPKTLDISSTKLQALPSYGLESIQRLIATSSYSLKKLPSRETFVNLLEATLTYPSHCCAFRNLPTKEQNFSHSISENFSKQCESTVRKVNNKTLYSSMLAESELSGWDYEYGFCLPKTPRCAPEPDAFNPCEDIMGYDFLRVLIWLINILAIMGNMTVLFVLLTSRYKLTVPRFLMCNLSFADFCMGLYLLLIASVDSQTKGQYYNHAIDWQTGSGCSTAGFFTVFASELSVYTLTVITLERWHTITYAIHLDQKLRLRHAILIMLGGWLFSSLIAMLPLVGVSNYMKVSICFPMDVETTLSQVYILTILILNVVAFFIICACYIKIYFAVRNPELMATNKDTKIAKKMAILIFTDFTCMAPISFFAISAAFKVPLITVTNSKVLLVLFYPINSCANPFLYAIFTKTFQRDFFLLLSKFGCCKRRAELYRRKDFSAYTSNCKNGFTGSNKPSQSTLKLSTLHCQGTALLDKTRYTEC
# human LHCGR (residues 27-699) with the constitutively active mutation S277I (P22888, form named): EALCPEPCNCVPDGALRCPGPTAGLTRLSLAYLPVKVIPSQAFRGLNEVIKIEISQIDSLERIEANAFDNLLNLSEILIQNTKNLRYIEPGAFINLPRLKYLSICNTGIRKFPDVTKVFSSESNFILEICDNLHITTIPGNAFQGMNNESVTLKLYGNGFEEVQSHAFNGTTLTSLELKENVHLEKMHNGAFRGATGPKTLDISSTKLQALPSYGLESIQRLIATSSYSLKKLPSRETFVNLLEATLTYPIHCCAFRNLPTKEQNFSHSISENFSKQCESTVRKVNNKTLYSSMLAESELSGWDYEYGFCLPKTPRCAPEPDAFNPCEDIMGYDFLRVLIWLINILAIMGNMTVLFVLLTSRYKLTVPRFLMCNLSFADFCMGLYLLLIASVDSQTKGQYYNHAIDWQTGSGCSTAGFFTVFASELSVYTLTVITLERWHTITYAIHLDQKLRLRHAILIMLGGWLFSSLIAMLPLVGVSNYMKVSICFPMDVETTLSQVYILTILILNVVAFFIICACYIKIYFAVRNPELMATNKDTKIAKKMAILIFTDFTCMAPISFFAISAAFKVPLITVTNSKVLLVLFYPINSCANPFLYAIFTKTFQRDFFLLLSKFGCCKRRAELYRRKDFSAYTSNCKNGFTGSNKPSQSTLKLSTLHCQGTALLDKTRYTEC
# UniProt P01215, residues 25-116: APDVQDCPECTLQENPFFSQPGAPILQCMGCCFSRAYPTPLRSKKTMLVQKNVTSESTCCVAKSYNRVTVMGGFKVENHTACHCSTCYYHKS
# No constants are given. Whether binding was seen depends on the method and setting. Some entries that bind do so weakly or less than the wild type.
# Assays:
# Assay in all cases: cryo-EM structure
# [1] = biological target: human LHCGR (residues 27-699) with the constitutively active mutation S277I (human) (UniProt P22888)
# [2] = biological target: CG α-subunit (human) (UniProt P01215)
# [3] = biological target: human LHCGR (residues 27-699), wild type (human) (UniProt P22888)
Substance,binding [1],binding [2],binding [3]
human LHCGR (residues 27-699) with the constitutively active mutation S277I (from UniProt P22888 27-699) (receptor),no binding,–,–
CG β-subunit (from UniProt P0DN86 21-165),binds,binds,–
CG α-subunit (from UniProt P01215 25-116),binds,–,–
"human chorionic gonadotropin (CG), native heterodimer of α- and β-subunit (from UniProt P01215;P0DN86) (complex)",binds,–,binds
